Data from patent publication US20040053219A1, “Method for analysing human immunodeficiency virus (HIV) phenotypic characteristics” (priority 2000, published 2004).
For at least one compound, name, drawing or mass did not settle the structure.

Columns and labels:
Format in all cases: cell-based, HIV-1
[1] = test system: recombinant virus, specimen R4 (41L, 67N, 69D, 184V, 190A, H208Y, 210W, 215Y); test: RVA susceptibility to RTI, recombinant virus from patient specimen R4; conditions: specimen R4, genotype 41L, IC50 ratio to NL43, '>' = IC50 above the detectable range in all tests
Description: (§1) The determination of the susceptibility of an HIV virus is performed as follows: 293 T cells are transfected with 7.5 μg of pSRT plasmid linearised with NruI, 0.1 μg of pVSV-G plasmid and 0.5 and 1 μg of product from the HIV reverse transcriptase PCR reaction. The transfection precipitate is removed from the cells after 18 hours of incubation and the fresh growth medium is added. After 24 hours of culture, the supernatant is clarified by centrifugation (500 g, 15 minutes) and transferred on P4 indicator cells which have been pre-incubated with serial dilutions of a reverse transcriptase inhibitor, in triplicate wells, for four hours. […] The signal produced by activating the marker gene was developed with CPRG for 48 hours, as for the analysis of the susceptibility to a reverse transcriptase inhibitor and the IC50 index was calculated using the median effect equation.
(§2) The reproducibility of the method to determine the susceptibility of recombinant virus (RVA) to reverse transcriptase inhibitors (RTI) was evaluated with a series of tests on 5 specimens, selected so as to represent a wide range of susceptibility profiles, between 4 and 8 tests per specimen, using RNA preparations and separate PCR reactions.
(§3) (b) The Resistance Index is the ratio of the IC50 in the specimen with reference to that of NL43 determined in parallel.

[2] = test system: recombinant virus, specimen R3 (184V, 215F); test: RVA susceptibility to RTI, recombinant virus from patient specimen R3
Description: as §1, §2, §3

[3] = test system: recombinant virus, specimen R2 (multi-compound resistance complex 62V, 75I, 77L, 116Y, 151M; 184V; 181C, 190A); test: RVA susceptibility to RTI, recombinant virus from patient specimen R2; conditions: specimen R2, genotype 41L, 67N, 69N, 751, 77L, 115F, 208Y, 215F, 219Q, IC50 ratio to NL43, '>' = IC50 above the detectable range in all tests
Description: as §1, §2, §3

## Nc1ccn([C@@H]2CS[C@H](CO)O2)c(=O)n1 [3TC, lamivudine]
[1]
  Resistance Index (geometric mean): >
[2]; specimen R3, genotype 184V, 21SF, IC50 ratio to NL43, '>' = IC50 above the detectable range in all tests
  Resistance Index (geometric mean): >
[2]; specimen R3, modulated by 184V mutation
  level of resistance (in words): high level of resistance
[3]
  Resistance Index (geometric mean): >f
